{"source": "PubChem BioAssay AID1259291 (Sanger Institute, 2017)", "screen": "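Find kinase and colorectal-cancer-mutated genes whose loss kills HT29 cells or aids anchor drugs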 (primary screen)", "system": "HT29 human colorectal cancer cells", "knock-down reagent": "siRNA pool against human genes", "conditions": "anchor drugs added a day after transfection: BYL719 at 1 µM, cetuximab at 5 µg/ml or trametinib at 10 nM, or DMSO vehicle alone", "measured": "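Cell viability as a fraction of the non-targeting pool, mean of replicates, robust z-scores from control wells; synergy scores for BYL719 (1 µM), cetuximab (5 µg/ml), trametinib (10 nM)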", "direction": "robust z-score, knock-down alone and viability, knock-down alone: higher = more viable cells", "units": "viability, knock-down alone in fraction of control", "call rule": "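a knock-down alone scoring under -3 on robust z-score is called essential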", "calls": "active = essential (knock-down alone); inactive = no change alone", "note": "The deposit covers 794 reagents; below is a random part of them. 15 of them (1.9%) count as active. 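Calls rest on knock-down alone; drug synergy scores do not affect them; drugs added a day post-transfection, DMSO vehicle as comparison.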 A number with no mark means an inactive call. No viability above 1 is reported: the scale is capped. Further read-outs or replicates are left out here. Reagent sequences are not shown. Not given: the amount of reagent, the time to read-out."}
{"gene knocked down": "PDIK1L (PDLIM1 interacting kinase 1 like)", "robust z-score, knock-down alone": -0.295, "viability, knock-down alone": 0.947}
{"gene knocked down": "TEX14 (testis expressed 14, intercellular bridge forming factor)", "robust z-score, knock-down alone": 0.552, "viability, knock-down alone": 1}
{"gene knocked down": "CSNK1D (casein kinase 1 delta)", "robust z-score, knock-down alone": -1.02, "viability, knock-down alone": 0.902}
{"gene knocked down": "IP6K2 (inositol hexakisphosphate kinase 2)", "robust z-score, knock-down alone": 0.552, "viability, knock-down alone": 1}
{"gene knocked down": "MAP3K6 (mitogen-activated protein kinase kinase kinase 6)", "robust z-score, knock-down alone": 0.189, "viability, knock-down alone": 0.977}
{"gene knocked down": "PRKG1 (protein kinase cGMP-dependent 1)", "robust z-score, knock-down alone": 0.364, "viability, knock-down alone": 0.988}
{"gene knocked down": "WNK3 (WNK lysine deficient protein kinase 3)", "robust z-score, knock-down alone": 0.552, "viability, knock-down alone": 1}
{"gene knocked down": "PIK3R5 (phosphoinositide-3-kinase regulatory subunit 5)", "robust z-score, knock-down alone": -1.37, "viability, knock-down alone": 0.881}
{"gene knocked down": "RIPK1 (receptor interacting serine/threonine kinase 1)", "robust z-score, knock-down alone": 0.552, "viability, knock-down alone": 1}
{"gene knocked down": "MAPK11 (mitogen-activated protein kinase 11)", "robust z-score, knock-down alone": 0.552, "viability, knock-down alone": 1}
{"gene knocked down": "MAP2K2 (mitogen-activated protein kinase kinase 2)", "robust z-score, knock-down alone": 0.552, "viability, knock-down alone": 1}
{"gene knocked down": "SRPK1 (SRSF protein kinase 1)", "robust z-score, knock-down alone": 0.552, "viability, knock-down alone": 1}

An excerpt from above, reduced to “viability, knock-down alone”.
TEX14 (testis expressed 14, intercellular bridge forming factor) = 1
CSNK1D (casein kinase 1 delta) = 0.902
